PMC7065907
No constants are given. Whether binding was seen depends on the method and setting. For some of these results: In cells and extracts the contact can be indirect. Some binding calls cover weakened binding; strength is not graded here.

Protein sequences, listed by entry. Tags and fused reporters are not part of them. Lines headed by an entry give the natural chain unless they say otherwise; changes in a name come on top.
UniProt Q9Y5T5: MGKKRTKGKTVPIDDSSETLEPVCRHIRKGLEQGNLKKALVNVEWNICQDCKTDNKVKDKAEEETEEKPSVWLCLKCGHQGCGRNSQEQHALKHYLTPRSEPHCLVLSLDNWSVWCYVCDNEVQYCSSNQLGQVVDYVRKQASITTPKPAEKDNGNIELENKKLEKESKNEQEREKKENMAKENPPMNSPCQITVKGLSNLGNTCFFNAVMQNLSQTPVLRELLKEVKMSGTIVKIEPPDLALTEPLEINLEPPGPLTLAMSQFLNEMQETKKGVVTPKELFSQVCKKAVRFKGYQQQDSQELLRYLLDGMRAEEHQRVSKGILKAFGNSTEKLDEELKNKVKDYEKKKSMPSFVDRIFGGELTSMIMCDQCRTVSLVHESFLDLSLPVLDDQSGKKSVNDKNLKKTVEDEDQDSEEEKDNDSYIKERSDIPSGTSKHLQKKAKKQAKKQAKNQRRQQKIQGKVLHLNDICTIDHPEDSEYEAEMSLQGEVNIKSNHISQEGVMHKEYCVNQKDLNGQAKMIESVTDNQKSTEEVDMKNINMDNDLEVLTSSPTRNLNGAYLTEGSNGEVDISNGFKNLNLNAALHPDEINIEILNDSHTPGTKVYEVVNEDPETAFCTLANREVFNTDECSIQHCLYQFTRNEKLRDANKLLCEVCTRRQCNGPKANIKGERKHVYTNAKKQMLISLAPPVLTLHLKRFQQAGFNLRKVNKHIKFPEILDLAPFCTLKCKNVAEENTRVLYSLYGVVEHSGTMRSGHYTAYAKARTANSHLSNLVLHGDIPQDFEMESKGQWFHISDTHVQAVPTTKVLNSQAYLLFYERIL

B1: NOB1 (enzyme, UniProt Q9ULX3 1-412)
chain: MAPVEHVVADAGAFLRHAALQDIGKNIYTIREVVTEIRDKATRRRLAVLPYELRFKEPLPEYVRLVTEFSKKTGDYPSLSATDIQVLALTYQLEAEFVGVSHLKQEPQKVKVSSSIQHPETPLHISGFHLPYKPKPPQETEKGHSACEPENLEFSSFMFWRNPLPNIDHELQELLIDRGEDVPSEEEEEEENGFEDRKDDSDDDGGGWITPSNIKQIQQELEQCDVPEDVRVGCLTTDFAMQNVLLQMGLHVLAVNGMLIREARSYILRCHGCFKTTSDMSRVFCSHCGNKTLKKVSVTVSDDGTLHMHFSRNPKVLNPRGLRYSLPTPKGGKYAINPHLTEDQRFPQLRLSQKARQKTNVFAPDYIAGVSPFVENDISSRSATLQVRDSTLGAGRRRLNPNASRKKFVKKR
B2: NOB1, Q9ULX3 1-412 (enzyme)
chain: B1 chain

Key:
USP16(WT)-StHA (human) = USP16(WT)-StHA (human) (UniProt Q9Y5T5); assay: tandem affinity purification (TAP); StrepTactin beads, elution with 2.5 mM d-desthiobiotin, then HA-agarose 1 hr at 4°C, from lysates of HEK293 cells expressing the StHA-tagged bait; eluates analysed by silver staining and immunoblotting
[1] = target: USP16(C205S)-StHA (human) (UniProt Q9Y5T5); assay: as above
RIOK1(kd)-StHA (human) = target: T1, RIOK1(kd)-StHA (human) (UniProt Q9BRS2); assay: pull-down; StrepTactin beads with lysates of tetracycline-induced HEK293 FlpIn T-REx cells expressing the tagged bait; 10 mM Tris pH 7.5, 100 mM KCl, 2 mM MgCl2, 0.5% NP-40, 1 mM DTT; 30 min at 4°C; eluates immunoblotted; in Figure 4E cells treated with control or USP16 siRNA for 72 hr
T1 sequence: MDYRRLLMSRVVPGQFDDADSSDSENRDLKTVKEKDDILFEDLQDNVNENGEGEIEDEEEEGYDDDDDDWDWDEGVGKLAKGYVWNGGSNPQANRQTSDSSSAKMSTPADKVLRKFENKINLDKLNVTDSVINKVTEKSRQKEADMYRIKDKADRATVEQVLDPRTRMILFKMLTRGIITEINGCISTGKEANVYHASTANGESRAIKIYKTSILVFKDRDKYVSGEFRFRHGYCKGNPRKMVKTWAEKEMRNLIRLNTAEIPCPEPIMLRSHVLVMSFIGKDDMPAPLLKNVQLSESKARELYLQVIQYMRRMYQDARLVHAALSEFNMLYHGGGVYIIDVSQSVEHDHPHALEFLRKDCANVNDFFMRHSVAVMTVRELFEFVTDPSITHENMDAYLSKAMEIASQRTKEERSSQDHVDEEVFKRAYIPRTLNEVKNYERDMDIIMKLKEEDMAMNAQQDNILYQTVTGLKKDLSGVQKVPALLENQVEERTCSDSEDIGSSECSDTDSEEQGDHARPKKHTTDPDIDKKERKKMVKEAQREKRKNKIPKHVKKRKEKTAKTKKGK

[2] = target: T2, ENP1-StHA (human), Q13895; assay: as above; conditions: remark: other sources report otherwise
T2 chain: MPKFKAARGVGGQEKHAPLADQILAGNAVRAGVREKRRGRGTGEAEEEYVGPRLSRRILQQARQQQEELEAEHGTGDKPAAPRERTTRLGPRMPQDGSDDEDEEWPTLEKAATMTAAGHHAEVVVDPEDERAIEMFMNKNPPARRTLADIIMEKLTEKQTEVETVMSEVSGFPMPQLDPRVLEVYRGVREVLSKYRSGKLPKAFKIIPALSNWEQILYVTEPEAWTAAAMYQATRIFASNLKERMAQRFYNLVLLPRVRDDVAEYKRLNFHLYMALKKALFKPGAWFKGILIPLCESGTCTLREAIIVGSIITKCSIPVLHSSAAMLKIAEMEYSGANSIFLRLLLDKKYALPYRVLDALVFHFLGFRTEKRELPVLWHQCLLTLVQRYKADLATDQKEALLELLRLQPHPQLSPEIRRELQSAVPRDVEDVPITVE

Row | Binder | binding (USP16(WT)-StHA (human)) | binding [1] | binding (RIOK1(kd)-StHA (human)) | binding [2]
1 | B1 | binds | binds | binds | –
2 | B2 | – | – | – | binds
